Reference: PubChem BioAssay AID330 (DTP/NCI, 2004)
The list is a part of this screen's results and no random one: it is rich in T/C values a quarter to a half above the control, in often repeated tests (any T/C) and in doses without a T/C. Further doses and runs are listed elsewhere. T/C gives the treated animals as a percentage of the vehicle group. Some doses have a count of surviving animals in place of a T/C: the source files T/C as zero there, which appears to mark a toxic dose or a test without result, not a measured value. Some doses without a T/C left all or most animals alive at the check, yet need not have been tolerated: survival well below the control is almost never listed, so the zero probably covers shortened survival too. Survivors were counted at the toxicity check, usually on the fifth day, unless a day is given; later deaths do not show. Schedules are NCI's codes, read here as Q, the interval in days (D) or hours (H), X, the number of doses. Marks such as (2×) stand for listed records that agree. Some entries were tested several times; their values stand side by side, smallest first. For survival time, this PubChem deposit counts one and a half times the control or more as active, and values a quarter to a half above the control carry no call in these data; other NCI protocols may use other cut-offs.

System: P388 leukemia ip, CD2F1 mice, survival T/C
Test: NCI In Vivo Anticancer Drug Screen. Data for tumor model P388 Leukemia (intraperitoneal) in CD2F1 (CDF1) mice
Conditions: T/C endpoint: median survival time, higher T/C = longer survival
[1] = dose: 25.0 mg/kg/injection, schedule: Q04DX003 (ip), vehicle: saline
[2] = dose: 60.0 mg/kg/injection, schedule: Q01DX005 (ip), vehicle: Klucel (hydroxypropylcellulose) (HPC)
[3] = dose: 200.0 mg/kg/injection, schedule: Q01DX005 (ip), vehicle: Klucel (hydroxypropylcellulose) (HPC)
[4] = dose: 200.0 mg/kg/injection, schedule: Q01DX009 (ip), vehicle: Klucel (hydroxypropylcellulose) (HPC)

SMILES: Cc1c2cc[n+](C)cc2c(C)c2c1[nH]c1ccc(O)cc12
- T/C (dose: 0.25 mg/kg/injection, schedule: Q04DX003 (ip), vehicle: water): 127 % of control
- T/C (dose: 0.5 mg/kg/injection, schedule: Q04DX003 (ip), vehicle: water, evaluated on day 30): 136 % of control
- T/C (dose: 0.5 mg/kg/injection, schedule: Q04DX003 (ip), vehicle: water, evaluated on day 35): 130 % of control
- T/C (dose: 0.78 mg/kg/injection, schedule: Q04DX002 (ip), vehicle: saline): 138 % of control
- T/C (dose: 0.97 mg/kg/injection, schedule: Q04DX002 (ip), vehicle: saline): 132 % of control
- T/C (dose: 1.0 mg/kg/injection, schedule: Q04DX003 (ip), vehicle: water): 142 % of control
- T/C (dose: 1.3 mg/kg/injection, schedule: Q04DX002 (ip), vehicle: saline): 142 % of control
- T/C (dose: 1.62 mg/kg/injection, schedule: Q04DX002 (ip), vehicle: saline): 135 % of control
- T/C (dose: 2.16 mg/kg/injection, schedule: Q04DX002 (ip), vehicle: saline): 148 % of control
- T/C (dose: 2.7 mg/kg/injection, schedule: Q04DX002 (ip), vehicle: saline): 143 % of control
- survivor count (dose: 4.0 mg/kg/injection, schedule: Q04DX003 (ip), vehicle: water): 6 of 6 (2×)
- T/C (dose: 6.25 mg/kg/injection, schedule: Q04DX003 (ip), vehicle: saline): 129 % of control
- survivor count (dose: 12.5 mg/kg/injection, schedule: Q04DX003 (ip), vehicle: saline): 6 of 6
- T/C [1]: 132 % of control
- survivor count [1]: 4 of 6
- survivor count (dose: 200.0 mg/kg/injection, schedule: Q04DX003 (ip), vehicle: saline): 6 of 6

SMILES: COC1=C(OC)C(=O)C([Si](C)(C)C)=C(CO)C1=O
- survivor count (dose: 30.0 mg/kg/injection, schedule: Q01DX005 (ip), vehicle: saline with Tween-80): 1 of 6
- survivor count [2]: 0 of 6
- survivor count (dose: 120.0 mg/kg/injection, schedule: Q01DX005 (ip), vehicle: Klucel (hydroxypropylcellulose) (HPC)): 0 of 6
- survivor count (dose: 240.0 mg/kg/injection, schedule: Q01DX005 (ip), vehicle: Klucel (hydroxypropylcellulose) (HPC)): 0 of 6

SMILES: C=C1CC(c2ccc(S(=O)(=O)N3CCOCC3)cc2)OC1=O (stereo not given)
- survivor count [3]: 1 of 6

SMILES: CCC(=O)O[C@H]1CC[C@H]2[C@@H]3CC(=C(Br)Br)C4=CC(=O)CC[C@]4(C)[C@H]3CC[C@]12C
- survivor count (dose: 100.0 mg/kg/injection, schedule: Q04DX003 (ip), vehicle: saline with Tween-80): 6 of 6
- survivor count (dose: 200.0 mg/kg/injection, schedule: Q04DX003 (ip), vehicle: saline with Tween-80): 6 of 6
- survivor count (dose: 400.0 mg/kg/injection, schedule: Q04DX003 (ip), vehicle: saline with Tween-80): 6 of 6

SMILES: Nc1ncnc2nc[nH]c12
- survivor count (dose: 64.0 mg/kg/injection, schedule: Q01DX009 (ip), vehicle: Klucel (hydroxypropylcellulose) (HPC)): 5 of 6 and 6 of 6
- survivor count (dose: 128.0 mg/kg/injection, schedule: Q01DX009 (ip), vehicle: Klucel (hydroxypropylcellulose) (HPC)): 5 of 6
- survivor count (dose: 256.0 mg/kg/injection, schedule: Q01DX009 (ip), vehicle: Klucel (hydroxypropylcellulose) (HPC)): 3 of 6 and 6 of 6
- T/C (dose: 256.0 mg/kg/injection, schedule: Q01DX009 (ip), vehicle: saline with Tween-80): 126 % of control
- survivor count (dose: 512.0 mg/kg/injection, schedule: Q01DX009 (ip), vehicle: Klucel (hydroxypropylcellulose) (HPC)): 0 of 6
- survivor count (dose: 512.0 mg/kg/injection, schedule: Q01DX009 (ip), vehicle: saline with Tween-80): 1 of 6 and 2 of 6

SMILES: CCCn1c2ccccc2c2c(C)c3cnccc3c(C)c21
- T/C (dose: 200.0 mg/kg/injection, schedule: Q04DX002 (ip), vehicle: saline with Tween-80): 128 % of control

SMILES: CN(CCN(C)C(=S)SCc1ccccc1)C(=S)SCc1ccccc1
- survivor count (dose: 50.0 mg/kg/injection, schedule: Q01DX009 (ip), vehicle: Klucel (hydroxypropylcellulose) (HPC)): 6 of 6
- survivor count (dose: 100.0 mg/kg/injection, schedule: Q01DX009 (ip), vehicle: Klucel (hydroxypropylcellulose) (HPC)): 6 of 6
- survivor count [4]: 6 of 6

SMILES: CCCCc1ccc2nc(C)cc(N=[N+]=[N-])c2c1
- survivor count (dose: 240.0 mg/kg/injection, schedule: Q01DX005 (ip), vehicle: saline with Tween-80): 2 of 6

SMILES: CCC(=O)NC1=C(Cl)C(=O)C(NC(=O)CC)=C(Cl)C1=O
- survivor count [4]: 0 of 6

SMILES: COc1cccc2c1C(=O)c1c(O)c3c(c(O)c1C2=O)C[C@@](O)(C(=O)CSC(C)=O)C[C@@H]3OC1CC(N)C(O)C(C)O1 (stereo not given in full)
- T/C (dose: 1.56 mg/kg/injection, schedule: Q01DX009 (ip), vehicle: water): 128 and 129 % of control
- T/C (dose: 3.13 mg/kg/injection, schedule: Q01DX009 (ip), vehicle: water): 135 and 136 % of control
- T/C (dose: 6.25 mg/kg/injection, schedule: Q01DX009 (ip), vehicle: water): 135 and 145 % of control
- T/C (dose: 12.5 mg/kg/injection, schedule: Q01DX001 (ip), vehicle: water): 126 % of control
- T/C (dose: 12.5 mg/kg/injection, schedule: Q01DX009 (ip), vehicle: water): 146 % of control (2×)
- T/C (dose: 25.0 mg/kg/injection, schedule: Q01DX001 (ip), vehicle: water): 129 % of control
- survivor count (dose: 50.0 mg/kg/injection, schedule: Q01DX001 (ip), vehicle: water): 3 of 6
- survivor count (dose: 100.0 mg/kg/injection, schedule: Q01DX001 (ip), vehicle: water): 3 of 6
- survivor count (dose: 200.0 mg/kg/injection, schedule: Q01DX001 (ip), vehicle: water): 0 of 6
- survivor count (dose: 400.0 mg/kg/injection, schedule: Q01DX001 (ip), vehicle: water): 0 of 6

SMILES: Cc1nc2[nH]cc(-c3ccccc3)c2c(=N)n1-c1ccccc1
- survivor count (dose: 100.0 mg/kg/injection, schedule: Q01DX005 (ip), vehicle: Klucel (hydroxypropylcellulose) (HPC)): 6 of 6
- survivor count [3]: 6 of 6

SMILES: CC(=O)Nc1ccc(C(=O)CN(Cc2ccccc2)Cc2ccccc2)cc1
- survivor count [3]: 5 of 5

SMILES: C/C(=N/N=C(N)N)c1cn(C(=N)N)nc1C
- T/C [2]: 127 % of control
